Part of at least one peptide drawing is inferred or uncertain, most often the ends. Non-standard residues stand in square brackets, D forms with d. Residues, ends and D or L forms follow the SMILES beside them.
Columns and labels:
CCR2 = target: T1, CCR2 (Homo sapiens, UniProt P41597); assay: β-arrestin recruitment assay (PathHunter), CCL2-induced; format: cell-based; conditions: CCL2 at EC80 of 12.5 nM, HEK-CCR2; read-out: IC50 for inhibition of β-arrestin recruitment induced by CCL2
T1 construct: expressed in transfected cells
Procedure: Recruitment of β-arrestin in live cells was measured by chemoluminescence detection with the PathHunter™ eXpress β-Arrestin assay kit (DiscoveRex, #93-00446E1). Briefly, 100 μL PathHunter eXpress cells were expressing CCR2 were plated on a 96-well tissue culture treated plate for 48 hours at 37° C., 5% CO2. Cells were first incubated with ECL1 (C) inverso or control peptide and before adding 10 μL of the agonist, CCL2 diluted in OCC medium to achieve the EC80 determined beforehand or with OCC medium alone, for respectively 60 and 90 min at 37° C., 5% CO2. The reaction was stopped by adding 55 μL of the Working Detection Reagent Solution (PathHunter detection reagent) for 90 min at Room temperature. Chemoluminescent signal was read on a luminescent plate reader (TriStar LB 941, Berthold Technologies, Thoiry, France). Assays were run in triplicates.

Sequences of proteins named here, by UniProt entry; tags and fusion partners are left off. A change or cut given only in a name is not applied to a line headed by its entry.
UniProt P41597: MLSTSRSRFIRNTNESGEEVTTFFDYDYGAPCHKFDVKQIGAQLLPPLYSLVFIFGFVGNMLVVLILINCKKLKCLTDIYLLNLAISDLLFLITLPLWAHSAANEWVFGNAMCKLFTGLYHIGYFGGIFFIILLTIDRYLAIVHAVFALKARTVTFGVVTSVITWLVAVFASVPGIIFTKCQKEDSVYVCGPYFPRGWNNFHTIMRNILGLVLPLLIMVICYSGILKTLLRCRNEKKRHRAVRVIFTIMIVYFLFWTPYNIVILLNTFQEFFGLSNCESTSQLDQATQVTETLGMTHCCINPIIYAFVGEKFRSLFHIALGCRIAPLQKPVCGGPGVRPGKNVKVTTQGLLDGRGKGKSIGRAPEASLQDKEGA

EL4 lymphoma cells = assay: EL4 lymphoma murine model of tumor metastasis, survival; format: in vivo; conditions: 90 μg/mouse/injection i.p., 3 times a week, day 12 to day 23 after tumor inoculation

**Q.** Which IC50 (CCR2) does the source give for `CC(C)C[C@@H](N)C(=O)NCC(=O)N[C@@H](C(=O)N[C@H](Cc1ccccc1)C(=O)N[C@H](CC(C)C)C(=O)N[C@H](CCCCN)C(=O)N[C@H](CS)C(=O)O)[C@H](C)O` [ECL1 (C) inverso, LGTFLKC] (H-[dL]G[dT][dF][dL][dK][dC]-OH; N-terminus and C-terminus assumed) here?
**A.** 2 µM

**Q.** And the “survival of mice developing liver metastasis” value (EL4 lymphoma cells)?
**A.** extends the survival

— patent publication US10253087B2, “CCR2 antagonist peptides” (UNIVERSITE PIERRE ET MARIE CURIE (Paris 6), priority 2011, dated 2019)
